Reference: PubChem BioAssay AID1224830 (NIAID, 2016)

Aim: 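Regulators of TLR4 signalling towards TNF-alpha in macrophage-like cells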 (primary screen)
System: human THP-1 monocytic leukaemia cells, TNF dual-luciferase reporter clone, PMA-differentiated to macrophage-like cells
Reagents: siRNA pool against human genes, 50 nM
Duration: LPS for 4 h, given about 3 days after siRNA transfection
Challenge: bacterial LPS (TLR4 ligand), 10 ng/ml
Detection: 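TNF firefly reporter luminescence divided by renilla, normalised to the plate median, then turned into a robust z-score for each replicate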
Direction: TNF reporter robust z-score: higher = stronger TNF reporter response to LPS
Call rule: 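Each well counts as active if its z-score is over 2.8 or under -1.5; controls are left without a call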
Shown is one part, drawn at random, of about 18,000 reagents tested. Of all reagents, about 2,900 (16%) got an active call. 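Calls are made per well; low scores hint the gene aids the LPS response, high scores that it dampens it.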 Unmarked entries are inactive. Repeated entries: four replicate wells of each siRNA pool. Reagent sequences are not shown.

target gene | PubChem SID | TNF reporter robust z-score
C1GALT1C1 (C1GALT1 specific chaperone 1) | SID315456118 | 1.08
C1GALT1C1 (C1GALT1 specific chaperone 1) | SID315456118 | 0.59
C1GALT1C1 (C1GALT1 specific chaperone 1) | SID315456118 | -0.95
C1GALT1C1 (C1GALT1 specific chaperone 1) | SID315456118 | -0.23
C1GALT1C1 (C1GALT1 specific chaperone 1) | SID315456118 | 3.29 (active)
C1GALT1C1 (C1GALT1 specific chaperone 1) | SID315456118 | 1.79
C1GALT1C1 (C1GALT1 specific chaperone 1) | SID315456118 | -0.31
C1GALT1C1 (C1GALT1 specific chaperone 1) | SID315456118 | 1.14
GNG13 (G protein subunit gamma 13) | SID315456888 | 0.21
GNG13 (G protein subunit gamma 13) | SID315456888 | 0.11
GNG13 (G protein subunit gamma 13) | SID315456888 | -0.07
GNG13 (G protein subunit gamma 13) | SID315456888 | 2.73
PERP (p53 apoptosis effector related to PMP22) | SID315458803 | -0.85
PERP (p53 apoptosis effector related to PMP22) | SID315458803 | -0.42
PERP (p53 apoptosis effector related to PMP22) | SID315458803 | 1.14
PERP (p53 apoptosis effector related to PMP22) | SID315458803 | -0.17
MFF (mitochondrial fission factor) | SID315458183 | -0.83
MFF (mitochondrial fission factor) | SID315458183 | 0.47
MFF (mitochondrial fission factor) | SID315458183 | 0.18
MFF (mitochondrial fission factor) | SID315458183 | -0.86
TSFM (Ts translation elongation factor, mitochondrial) | SID315453820 | 0.46
TSFM (Ts translation elongation factor, mitochondrial) | SID315453820 | -0.46
TSFM (Ts translation elongation factor, mitochondrial) | SID315453820 | 0.71
TSFM (Ts translation elongation factor, mitochondrial) | SID315453820 | -0.05
ZNF644 (zinc finger protein 644) | SID315460211 | 5.58 (active)
ZNF644 (zinc finger protein 644) | SID315460211 | 3.35 (active)
ZNF644 (zinc finger protein 644) | SID315460211 | 2.23
ZNF644 (zinc finger protein 644) | SID315460211 | 0.14
CFAP251 (cilia and flagella associated protein 251) | SID315462221 | 1.2
CFAP251 (cilia and flagella associated protein 251) | SID315462221 | 1.06
CFAP251 (cilia and flagella associated protein 251) | SID315462221 | 0.68
CFAP251 (cilia and flagella associated protein 251) | SID315462221 | 1.25
ZNF174 (zinc finger protein 174) | SID315452264 | 0.25
ZNF174 (zinc finger protein 174) | SID315452264 | -0.26
ZNF174 (zinc finger protein 174) | SID315452264 | 0.57
OPLAH (5-oxoprolinase, ATP-hydrolysing) | SID315455855 | 0.73
OPLAH (5-oxoprolinase, ATP-hydrolysing) | SID315455855 | 0.18
OPLAH (5-oxoprolinase, ATP-hydrolysing) | SID315455855 | 0.4
OPLAH (5-oxoprolinase, ATP-hydrolysing) | SID315455855 | -0.43
USP7 (ubiquitin specific peptidase 7) | SID315452336 | -0.38
USP7 (ubiquitin specific peptidase 7) | SID315452336 | 0.51
USP7 (ubiquitin specific peptidase 7) | SID315452336 | -0.23
USP7 (ubiquitin specific peptidase 7) | SID315452336 | -0.39

The list goes on (13 carried over from the part before).
target gene | PubChem SID | TNF reporter robust z-score
CFAP251 (cilia and flagella associated protein 251) | SID315462221 | 0.68
CFAP251 (cilia and flagella associated protein 251) | SID315462221 | 1.25
ZNF174 (zinc finger protein 174) | SID315452264 | 0.25
ZNF174 (zinc finger protein 174) | SID315452264 | -0.26
ZNF174 (zinc finger protein 174) | SID315452264 | 0.57
OPLAH (5-oxoprolinase, ATP-hydrolysing) | SID315455855 | 0.73
OPLAH (5-oxoprolinase, ATP-hydrolysing) | SID315455855 | 0.18
OPLAH (5-oxoprolinase, ATP-hydrolysing) | SID315455855 | 0.4
OPLAH (5-oxoprolinase, ATP-hydrolysing) | SID315455855 | -0.43
USP7 (ubiquitin specific peptidase 7) | SID315452336 | -0.38
USP7 (ubiquitin specific peptidase 7) | SID315452336 | 0.51
USP7 (ubiquitin specific peptidase 7) | SID315452336 | -0.23
USP7 (ubiquitin specific peptidase 7) | SID315452336 | -0.39
OR5A2 (olfactory receptor family 5 subfamily A member 2) | SID315463223 | -0.05
OR5A2 (olfactory receptor family 5 subfamily A member 2) | SID315463223 | -0.56
OR5A2 (olfactory receptor family 5 subfamily A member 2) | SID315463223 | -0.64
OR5A2 (olfactory receptor family 5 subfamily A member 2) | SID315463223 | -1.39
SHANK3 (SH3 and multiple ankyrin repeat domains 3) | SID315460665 | 0.9
SHANK3 (SH3 and multiple ankyrin repeat domains 3) | SID315460665 | 0.64
SHANK3 (SH3 and multiple ankyrin repeat domains 3) | SID315460665 | 2.08
SHANK3 (SH3 and multiple ankyrin repeat domains 3) | SID315460665 | 1.88
PHC3 (polyhomeotic homolog 3) | SID315459620 | 2.31
PHC3 (polyhomeotic homolog 3) | SID315459620 | 2.65
PHC3 (polyhomeotic homolog 3) | SID315459620 | 2.59
PHC3 (polyhomeotic homolog 3) | SID315459620 | 3.07 (active)
SPDYE1 (speedy/RINGO cell cycle regulator family member E1) | SID315463885 | 0.18
SPDYE1 (speedy/RINGO cell cycle regulator family member E1) | SID315463885 | 0.42
SPDYE1 (speedy/RINGO cell cycle regulator family member E1) | SID315463885 | 1.08
SPDYE1 (speedy/RINGO cell cycle regulator family member E1) | SID315463885 | 1.25
NYNRIN (NYN domain and retroviral integrase containing) | SID315458437 | 0
NYNRIN (NYN domain and retroviral integrase containing) | SID315458437 | 0.09
NYNRIN (NYN domain and retroviral integrase containing) | SID315458437 | 0.14
MRPS23 (mitochondrial ribosomal protein S23) | SID315456826 | 0.57
MRPS23 (mitochondrial ribosomal protein S23) | SID315456826 | 1.41
MRPS23 (mitochondrial ribosomal protein S23) | SID315456826 | -0.47
MRPS23 (mitochondrial ribosomal protein S23) | SID315456826 | -0.83
NEU3 (neuraminidase 3) | SID315454387 | 2.26
NEU3 (neuraminidase 3) | SID315454387 | 4.88 (active)
NEU3 (neuraminidase 3) | SID315454387 | 4.4 (active)
NEU3 (neuraminidase 3) | SID315454387 | 5.41 (active)
MORF4L2 (mortality factor 4 like 2) | SID315453445 | -0.63
MORF4L2 (mortality factor 4 like 2) | SID315453445 | -0.37
MORF4L2 (mortality factor 4 like 2) | SID315453445 | -0.5
MORF4L2 (mortality factor 4 like 2) | SID315453445 | -0.34
DMXL1 (Dmx like 1) | SID315448278 | -0.93
DMXL1 (Dmx like 1) | SID315448278 | -0.6
DMXL1 (Dmx like 1) | SID315448278 | -0.43
DMXL1 (Dmx like 1) | SID315448278 | -0.53
ANXA13 (annexin A13) | SID315447329 | -0.09
ANXA13 (annexin A13) | SID315447329 | 0.75
ANXA13 (annexin A13) | SID315447329 | 0.89
ANXA13 (annexin A13) | SID315447329 | -0.6
RAB3GAP1 (RAB3 GTPase activating protein catalytic subunit 1) | SID315454884 | -0.45
RAB3GAP1 (RAB3 GTPase activating protein catalytic subunit 1) | SID315454884 | -0.2
RAB3GAP1 (RAB3 GTPase activating protein catalytic subunit 1) | SID315454884 | -1.12
RAB3GAP1 (RAB3 GTPase activating protein catalytic subunit 1) | SID315454884 | 0.12
GABRR1 (gamma-aminobutyric acid type A receptor subunit rho1) | SID315448811 | 0.12
GABRR1 (gamma-aminobutyric acid type A receptor subunit rho1) | SID315448811 | 0.32
GABRR1 (gamma-aminobutyric acid type A receptor subunit rho1) | SID315448811 | 0.48
GABRR1 (gamma-aminobutyric acid type A receptor subunit rho1) | SID315448811 | -1.33
KIAA1586 | SID315458549 | -0.53
KIAA1586 | SID315458549 | -0.06
KIAA1586 | SID315458549 | 0.58
KIAA1586 | SID315458549 | 1.04
CHP1 (calcineurin like EF-hand protein 1) | SID315454725 | -0.12
CHP1 (calcineurin like EF-hand protein 1) | SID315454725 | -0.57
CHP1 (calcineurin like EF-hand protein 1) | SID315454725 | -0.35
CHP1 (calcineurin like EF-hand protein 1) | SID315454725 | -0.21
FUBP1 (far upstream element binding protein 1) | SID315452897 | 2.47
FUBP1 (far upstream element binding protein 1) | SID315452897 | 1.55
FUBP1 (far upstream element binding protein 1) | SID315452897 | 0.62
FUBP1 (far upstream element binding protein 1) | SID315452897 | 0.95
FANCD2OS (FANCD2 opposite strand) | SID315461328 | -0.22
FANCD2OS (FANCD2 opposite strand) | SID315461328 | 0.05
FANCD2OS (FANCD2 opposite strand) | SID315461328 | 0.03
FANCD2OS (FANCD2 opposite strand) | SID315461328 | 0.6
TPD52L2 (TPD52 like 2) | SID315451949 | -0.08
TPD52L2 (TPD52 like 2) | SID315451949 | 1.96
TPD52L2 (TPD52 like 2) | SID315451949 | 0.8
TPD52L2 (TPD52 like 2) | SID315451949 | 0.16
